Experimental data reported in PubChem BioAssay AID2685 (National Center for Advancing Translational Sciences (NCATS), 2010).
This is one part of the list. Further columns of the screen follow, without active or inactive calls. Compounds called inactive in the main read-out are mostly missing here. Potencies come from curve fits of mixed quality, noted in brackets.

Experiment: qHTS Assay for Lipid Storage Modulators in Drosophila S3 Cells;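 for cell number change: cells counted by Cell Tracker Red CMTPX staining in the red channel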
Settings: BODIPY lipid droplet fluorescence, 18-24 h; for cell number change: measured here: cell count max response, cells fed with added oleic acid
In short: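 Drosophila S3 cells got compounds at several concentrations plus oleic acid (400 uM solution). Laser-scanning cytometry with 488 nm excitation read lipid droplets at 500-530 nm and cells at 575-640 nm. Percent activity was relative to 20 uM Triacsin C.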

[1] = measured here: lipid fluorescence (Fed channel) AC50, cells fed with added oleic acid
[2] = measured here: cell number channel AC50, cells fed with added oleic acid

| SMILES | cell number change | AC50 [1] | AC50 [2] |
| --- | --- | --- | --- |
| O=P(C(c1c[nH]c2ccccc12)N1CCOCC1)(N1CCOCC1)N1CCOCC1 (centres undefined) | -0.99% |  |  |
| CCOP(=O)(OCC)C(O)c1ccc(OC)cc1OC (centres undefined) | -2.04% | 0.58 µM [rising, single point] |  |
| CCCCNC(=S)N1CCn2cccc2C1c1cccnc1 (centres undefined) | 23.1% | 0.092 µM [rising, full curve, poor fit] | 0.00517 µM [rising, full curve, poor fit] |
| CCOP(=O)(OCC)c1nc(-c2ccccc2)oc1NCc1ccccc1 |  |  | 0.231 µM [falling, partial curve] |
| Cc1ccc(C)c(NC2=NCCCS2)c1 | -109% |  | 29.1 µM [falling, single point] |
| Cc1cccc(N=Nc2ccc(N(C)C)cc2)c1 | -14.3% | 1.46 µM [falling, partial curve] |  |
| CCCn1c(C)c(C(=O)c2cccc3ccccc23)c2ccccc21 | 52.8% | 20.6 µM [rising, partial curve] | 11.6 µM [rising, single point] |
| COc1ccccc1N=Nc1ccc(N)c(C)c1 |  |  | 0.00461 µM [falling, full curve, poor fit] |
| NCCCP(=O)(O)CCc1ccccc1 | -51.1% | 18.4 µM [falling, single point] | 29.1 µM [falling, single point] |
| COC(=O)C1=C(c2ccc(C(C)=O)cc2)C[C@@H]2CC[C@H]1N2C(=O)N1CCC(C)CC1 | -4.24% | 0.58 µM [falling, single point] |  |
| COc1cc(OC)c(OC)cc1CNC(C)C(O)c1ccccc1 (centres undefined) | -8.88% | 20.6 µM [rising, single point] |  |
| CC1(C)CN2C(c3ccc(Cl)cc3)N2C1 (centres undefined) | -7.12% |  |  |
| O=c1c2ccccc2nc(/C=C/c2ccc3c(c2)OCO3)n1-c1cccc(O)c1 | 17.5% | 0.206 µM [rising, full curve] |  |
| COC(=O)c1c(N)n(Cc2ccc(OC)cc2)c2nc3ccccc3nc12 | -40.3% |  | 29.1 µM [falling, single point] |
| O=C1NC(=S)NC(=O)C12C(c1ccc(F)cc1)NC(=S)NC2c1ccc(F)cc1 (centres undefined) | -55.5% | 29.1 µM [falling, single point] | 1.64 µM [falling, full curve] |
| COC(=O)C1=C(c2ccc(F)cc2OCc2ccccc2)C[C@@H]2CC[C@H]1N2C(=O)NCCNC(C)=O | -13% |  |  |
| CN(C)P(=NC(=S)c1cccn1C)(N(C)C)N(C)C | 11.6% | 6.51 µM [falling, partial curve] | 4.61 µM [falling, single point] |
| COC(=O)C1=C(c2ccccc2OCc2ccccc2)C[C@@H]2CC[C@H]1N2C(=O)NCc1ccc(N(C)C)cc1 |  | 25.9 µM [falling, partial curve, poor fit] |  |
| CN1CCN(c2c(N)c(=O)oc3ccccc23)CC1 | -96.4% |  | 23.1 µM [falling, partial curve] |

| SMILES | cell number change | AC50 [1] | AC50 [2] |
| --- | --- | --- | --- |
| CCOc1cc(-c2ccc(N)c(OCC)c2)ccc1N |  | 0.58 µM [rising, single point] |  |
| CC(=NCc1ccc2c(c1)OCO2)c1c(O)n(C)c(=O)n(C)c1=O |  | 4.11 µM [rising, partial curve] |  |
| COc1ccccc1OCCCn1cc(C(=O)c2ccco2)c2ccccc21 |  |  | 3.26 µM [rising, partial curve] |
| CN1CCN(c2ccc(N)cc2)CC1 | -18.8% | 18.4 µM [falling, partial curve] |  |
| Cc1ccc(N)c(C)c1 | 19.4% | 2.59 µM [falling, single point] |  |
| CN(c1ccccc1)c1ccc([N+](=O)[O-])c2nonc12 | -46.7% | 16.4 µM [falling, single point] | 16.4 µM [falling, single point] |
| CCC1C=CC=CC[C@H](C)[C@@H](O)[C@](C)(O)C(=O)[C@@H](C)[C@H](O)[C@@H](C)C(=O)[C@H](C)[C@@H](O)[C@H](C)C=CC(=O)OC2[C@@H](C)C(CC1)OC1(CC[C@@H](C)C(C[C@H](C)O)O1)[C@@H]2C (some centres undefined) | -36.7% | 0.0146 µM [falling, full curve, poor fit] |  |
| OCC1(CO)COC(c2cccnc2)N1 (centres undefined) | -1.89% | 3.66 µM [falling, partial curve] |  |
| CCN(CC)CCCN=C(C)c1c(O)n(C2CCCCC2)c(=O)[nH]c1=O | 13.4% |  |  |
| CCC1C2CC3C4N(C)c5ccccc5C45CC(C2C5O)N3[C@@H]1O (some centres undefined) |  | 0.58 µM [rising, single point] |  |
| Cc1[nH]c2c(C(F)(F)F)cccc2c1CCN | -6.2% | 29.1 µM [rising, single point] |  |
| C=CCNC(=O)c1c(N)n(Cc2ccco2)c2nc3ccccc3nc12 | -44.2% | 0.206 µM [rising, full curve] | 29.1 µM [falling, single point] |
| Cc1cccc(CN2CCN(C(=O)Cc3ccccc3)CC2)c1 | 26.4% | 29.1 µM [rising, single point] |  |
| CCN1C(=O)/C(=C/c2ccc3c(c2)CCN3CCCCl)C(=O)NC1=S | -6.91% |  |  |
| CCOc1cc2c(cc1OCC)-n1cccc1C(c1ccc(C(C)C)cc1)NC2 (centres undefined) | -69.5% | 9.2 µM [falling, partial curve] | 7.31 µM [falling, partial curve] |
| Clc1ccccc1CN1CCN(c2cccc3[nH]ccc23)CC1 | -23.6% | 29.1 µM [falling, single point] |  |
| Cc1ccc(-c2cc(-c3ccccc3)cc(-c3ccccc3)[n+]2-c2ccccc2C(=O)O)cc1 | -45.9% | 1.64 µM [falling, partial curve] | 16.4 µM [falling, partial curve, poor fit] |
| CCOP(=O)(OCC)C(NC(=O)CC(C)C)C(Cl)(Cl)Cl (centres undefined) | 114% | 6.51 µM [falling, single point] | 2.31 µM [falling, partial curve] |
| COC(=O)C1=C(c2cccc(C#N)c2)C[C@@H]2CC[C@H]1N2C(=O)N1CCCCC1 | -10.5% | 0.651 µM [rising, full curve, poor fit] |  |

Ordered by SMILES length (falling): 3 of the compounds above

| SMILES | cell number change | AC50 [1] | AC50 [2] |
| --- | --- | --- | --- |
| CCN(CC)CCCN=C(C)c1c(O)n(C2CCCCC2)c(=O)[nH]c1=O | 13.4% |  |  |
| CCC1C2CC3C4N(C)c5ccccc5C45CC(C2C5O)N3[C@@H]1O (some centres undefined) |  | 0.58 µM [rising, single point] |  |
| Cc1[nH]c2c(C(F)(F)F)cccc2c1CCN | -6.2% | 29.1 µM [rising, single point] |  |
